The results in this text go back to article PMC11232239.

The chains behind the UniProt entries cited, without tags or fusion partners.
UniProt P28482: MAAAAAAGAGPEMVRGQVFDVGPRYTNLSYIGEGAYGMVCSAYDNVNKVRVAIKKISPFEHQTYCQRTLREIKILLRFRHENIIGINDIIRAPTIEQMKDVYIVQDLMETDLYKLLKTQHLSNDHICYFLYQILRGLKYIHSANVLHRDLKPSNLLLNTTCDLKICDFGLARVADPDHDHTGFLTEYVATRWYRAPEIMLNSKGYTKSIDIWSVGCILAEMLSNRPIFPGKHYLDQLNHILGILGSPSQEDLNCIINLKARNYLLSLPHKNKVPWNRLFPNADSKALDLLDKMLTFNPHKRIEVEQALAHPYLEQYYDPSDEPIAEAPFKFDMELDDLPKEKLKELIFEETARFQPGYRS

For this experiment, the target named is T1, phosphofructokinase-platelet (PFKP), endogenous (human (endogenous in LIU-LSC-1)) (UniProt Q01813).
T1 sequence: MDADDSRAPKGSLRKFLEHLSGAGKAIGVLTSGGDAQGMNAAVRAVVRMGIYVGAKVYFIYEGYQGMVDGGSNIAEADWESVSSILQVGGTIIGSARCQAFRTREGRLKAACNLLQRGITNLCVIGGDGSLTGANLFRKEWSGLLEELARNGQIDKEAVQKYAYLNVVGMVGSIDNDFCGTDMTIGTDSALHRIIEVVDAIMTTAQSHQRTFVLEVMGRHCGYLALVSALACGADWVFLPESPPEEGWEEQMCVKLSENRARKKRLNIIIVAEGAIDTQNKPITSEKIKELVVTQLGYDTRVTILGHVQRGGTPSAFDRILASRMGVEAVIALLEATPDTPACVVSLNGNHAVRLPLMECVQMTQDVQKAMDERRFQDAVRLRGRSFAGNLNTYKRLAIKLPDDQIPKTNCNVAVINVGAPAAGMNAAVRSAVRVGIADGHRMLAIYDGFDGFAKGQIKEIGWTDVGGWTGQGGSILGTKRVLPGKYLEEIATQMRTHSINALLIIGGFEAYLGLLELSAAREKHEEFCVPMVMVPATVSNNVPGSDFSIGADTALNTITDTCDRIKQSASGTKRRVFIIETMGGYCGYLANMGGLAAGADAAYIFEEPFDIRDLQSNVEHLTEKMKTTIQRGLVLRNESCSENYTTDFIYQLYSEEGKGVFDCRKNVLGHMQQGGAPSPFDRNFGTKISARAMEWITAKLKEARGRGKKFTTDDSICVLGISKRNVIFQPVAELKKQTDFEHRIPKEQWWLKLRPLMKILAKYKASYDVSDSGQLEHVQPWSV
As to the kind of experiment: affinity purification with mass spectrometry; anti-PFKP or IgG antibodies on agarose beads, cell lysate supernatant overnight at 4 °C, 4-12% SDS-PAGE, bands cut out, LC/MS; cells not given.

These are yes or no findings as the source states them, for the method shown. Binding seen in cells or lysates may run through a third protein. A yes stands for co-enrichment or nearness to the bait. Other partners may have been found.

For “ERK2, endogenous (from UniProt P28482 1-360)”, the binding result is listed as “binds”.
